At least one compound was matched to its structure with a doubt left.
How the values were obtained:
Format in all cases: in vivo, guinea pig
FD myopia = FD myopia in guinea pigs, peribulbar injection of DHA, EPA or atropine; conditions: 2 weeks
Protocol: The test animals were British tricolored short-haired guinea pigs aged 3 weeks. The animals were subjected to monocular form deprivation (FD) by a mask method and were randomly divided into 6 groups, which were treated by peribulbar injection with the following different substances: (1) ethanol solvent group (Vehicle); (2) low-dose DHA group (1.0 μg); (3) high-dose DHA group (3.0 μg): (4) low-dose EPA group (1.0 μg); (5) high-dose EPA group (3.0 μg); and (6) 0.1% atropine group.
The measurement methods of refraction, vitreous chamber depth and eye axis length were the same as those in Example 2.

[1] = tested on: choroidal thickness (ChT) and choroidal blood perfusion (ChBP); experiment: ChT and ChBP by OCT/OCTA in FD treated guinea pigs; conditions: peribulbar injection 1.0 μg and 3.0 μg, 2 weeks, vs Vehicle
HIF-1α protein = experiment: Western blotting of scleral HIF-1α protein in FD guinea pigs; conditions: peribulbar injection 2 weeks
[2] = high dose 3 μg/day, vs solvent control

| Structure (SMILES) | AL elongation (FD myopia; [2]) | VCD elongation (FD myopia; [2]) | reduction in ChBP (interocular difference) [1] | reduction in ChT (interocular difference) [1] | increase of the HIF-1α protein level (HIF-1α protein) | AL elongation (FD myopia; two doses (1.0 and 3.0 μg/day)) | VCD elongation (FD myopia; two doses (1.0 and 3.0 μg/day)) |
| --- | --- | --- | --- | --- | --- | --- | --- |
| CC/C=C\C/C=C\C/C=C\C/C=C\C/C=C\C/C=C\CCC(=O)O [DHA, docosahexaenoic acid] | significant reduction | significant reduction | significantly inhibit the reduction | significantly inhibit the reduction | is inhibited | – | – |
| CC/C=C\C/C=C\C/C=C\C/C=C\C/C=C\CCCC(=O)O [EPA, eicosapentaenoic acid] | – | – | no significant effects | no significant effects | is inhibited | no significant effects | no significant effects |

Reference: US20230321023A1, “APPLICATION OF REGULATION OF EYE SCLERA LIPID METABOLISM TO INHIBIT MYOPIA” (Wenzhou Medical University, priority 2020, published 2023)
